Laboratory results as given in article PMC10937113, ““Mix and match” auto-assembly of glycosyltransferase domains delivers biocatalysts with improved substrate promiscuity” (The Journal of Biological Chemistry, 2024).
No constants are given. Whether binding was seen depends on the method and setting. Binding calls can cover weak binding; strength is not graded here. For some of these results: In cells and extracts the contact can be indirect.

B1: CB1, C-terminal (sugar donor-binding) domain of Arabidopsis thaliana UGT74B1 (domain or fragment, UniProt O48676 254-460)
chain: GASLLKPISKECMEWLETKQAQSVAFVSFGSFGILFEKQLAEVAIALQESDLNFLWVIKEAHIAKLPEGFVESTKDRALLVSWCNQLEVLAHESIGCFLTHCGWNSTLEGLSLGVPMVGVPQWSDQMNDAKFVEEVWKVGYRAKEEAGEVIVKSEELVRCLKGVMEGESSVKIRESSKKWKDLAVKAMSEGGSSDRSINEFIESLGK
B2: CC1, C-terminal (sugar donor-binding) domain of Arabidopsis thaliana UGT74C1 (domain or fragment, UniProt Q9SKC1 250-457)
chain: ELENSKTEPDESVLKWLGNRPAKSVVYVAFGTLVALSEKQMKEIAMAISQTGYHFLWSVRESERSKLPSGFIEEAEEKDSGLVAKWVPQLEVLAHESIGCFVSHCGWNSTLEALCLGVPMVGVPQWTDQPTNAKFIEDVWKIGVRVRTDGEGLSSKEEIARCIVEVMEGERGKEIRKNVEKLKVLAREAISEGGSSDKKIDEFVALLT

Legend:
[1] = target: NB1, N-terminal (acceptor-binding) domain of Arabidopsis thaliana UGT74B1 (Arabidopsis thaliana) (UniProt O48676); experiment: SEC; IMAC-purified dimer on Superdex 200 Increase 10/300 GL, 200 mM NaCl, 50 mM Tris-HCl pH 8.0; both purified
[2] = target: NB1, N-terminal (acceptor-binding) domain of Arabidopsis thaliana UGT74B1 (Arabidopsis thaliana) (UniProt O48676); experiment: pull-down; N-terminal His-tagged N-domain and untagged C-domain co-expressed from two plasmids in E. coli BL21 (DE3); clarified lysate on His-Trap / Ni-NTA (IMAC), imidazole elution; eluate analysed by SDS-PAGE and peptide mass fingerprinting

Row | Binder | binding [1] | binding [2]
1 | B1 | binds | binds
2 | B2 | binds | binds
